{"source": "patent US20020076728A1", "about": "“Engineering affinity ligands for macromolecules” (priority 1997, published 2002)", "origin": "cited, not measured here", "conditions": "side-chain ionizable group of the amino acid type in proteins; cited from earlier work", "data": [{"smiles": "N[C@@H](Cc1ccc(O)cc1)C(=O)O", "note": "[Tyr]", "values": [{"measurement": "pKa range", "result": "10.0-10.3"}]}]}
